Measured data: PubChem BioAssay AID1224826 (NIAID, 2016)

- Aim: 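Regulators of Tlr4 signalling leading to Tnf-alpha expression in macrophages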 (primary screen)
- System: RAW264.7 G9 macrophages from mouse bearing reporters for p65 (GFP) and the Tnf promoter (mCherry)
- Reagents: siRNA pool against mouse genes, 100 nM
- Time to read-out: 16 h of LPS stimulation, after 2 days of siRNA transfection
- Conditions: bacterial lipopolysaccharide (Salmonella minnesota R595), 10 ng/ml
- Measured: 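Nuclear mCherry signal of the Tnf promoter reporter measured by imaging after background removal, scaled to each plate median and turned into robust z-scores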
- Direction: Tnf reporter robust z-score: higher = stronger Tnf promoter reporter signal after LPS
- Hit rule: 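Called active when robust z-score is at most -1.3, matching the median of the Tlr4 knock-down control, or over 3; control wells and wells with under 50 cells never active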
- Meaning of the calls: active = Tnf reporter clearly lowered or raised; inactive = no clear change in Tnf reporter
This is one part, drawn at random, of about 17,000 reagents tested. About 1,110 of all reagents (6.6%) count as active. 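Active means lowered or raised reporter signal; replicate intensities are raw and not normalised per plate.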 Unmarked entries are inactive. Further read-outs or replicates are left out here.

Mmp15 (GeneID 17388) → Tnf reporter robust z-score = -0.09; fewer than 50 cells in well = enough cells in well
Clip3 (GeneID 76686) → fewer than 50 cells in well = fewer than 50 cells per well; well left out of calls
Mylk3 (GeneID 213435) → Tnf reporter robust z-score = -1.33 (active); fewer than 50 cells in well = enough cells in well
Cep41 (GeneID 83922) → Tnf reporter robust z-score = -0.71; fewer than 50 cells in well = enough cells in well
Fgf4 (GeneID 14175) → Tnf reporter robust z-score = -0.53; fewer than 50 cells in well = enough cells in well
Atxn7l2 (GeneID 72522) → Tnf reporter robust z-score = -0.83; fewer than 50 cells in well = enough cells in well
Opa3 (GeneID 403187) → Tnf reporter robust z-score = 0.45; fewer than 50 cells in well = enough cells in well
Gstk1 (GeneID 76263) → Tnf reporter robust z-score = 0.49; fewer than 50 cells in well = enough cells in well
Ubqlnl (GeneID 244179) → fewer than 50 cells in well = fewer than 50 cells per well; well left out of calls
Adm2 (GeneID 223780) → Tnf reporter robust z-score = 1.28; fewer than 50 cells in well = enough cells in well
Dhcr7 (GeneID 13360) → Tnf reporter robust z-score = 0.91; fewer than 50 cells in well = enough cells in well
Metap1 (GeneID 75624) → Tnf reporter robust z-score = -0.82; fewer than 50 cells in well = enough cells in well
Rasa4 (GeneID 54153) → Tnf reporter robust z-score = -0.84; fewer than 50 cells in well = enough cells in well
Ppp4r2 (GeneID 232314) → Tnf reporter robust z-score = 1.42; fewer than 50 cells in well = enough cells in well
St6galnac1 (GeneID 20445) → fewer than 50 cells in well = fewer than 50 cells per well; well left out of calls
Il20 (GeneID 58181) → Tnf reporter robust z-score = -1.42 (active); fewer than 50 cells in well = enough cells in well
1700129L04Rik (retired record) (GeneID 73627) → Tnf reporter robust z-score = -0.51; fewer than 50 cells in well = enough cells in well
Apool (GeneID 68117) → Tnf reporter robust z-score = -0.49; fewer than 50 cells in well = enough cells in well
1700008J07RIK → fewer than 50 cells in well = fewer than 50 cells per well; well left out of calls
Gbx2 (GeneID 14472) → Tnf reporter robust z-score = 0.68; fewer than 50 cells in well = enough cells in well
Igsf6 (GeneID 80719) → Tnf reporter robust z-score = -1.5 (active); fewer than 50 cells in well = enough cells in well

Records listed so far whose target name begins with G or g:
Gstk1 (GeneID 76263) → Tnf reporter robust z-score = 0.49; fewer than 50 cells in well = enough cells in well
Gbx2 (GeneID 14472) → Tnf reporter robust z-score = 0.68; fewer than 50 cells in well = enough cells in well
